PubChem BioAssay AID1347075 (National Center for Advancing Translational Sciences (NCATS), 2019)
“And” between values parts separate entries of the source, which are not always exact repeats. Equal values may be shown once. In all, about 400,000 compounds went through this assay and about 5,500 (1.4%) were called active. Inconclusive results, whose numbers are uncertain, are shown with a selection of clear calls. The call rests on the fitted dose curve; in most records, active means well fitted cell-killing curve with a large enough effect; inconclusive means small, poorly fitted or top-dose-only effect, or effect the other way; inactive means flat fitted curve, though single readings scatter. Potencies beside an inconclusive call are fits to weak or partial responses and may not hold up.

Assay: qHTS assay for MDR1-selective chemotherapeutics: Primary screen using the parental adenocarcinoma cell KB-3-1; further: nearly all actives have a fitted effect of over 60% in size
Settings: KB-3-1 viability, CellTiter-Glo ATP luminescence, 72 h; activity change, negative = cytotoxic: at 46.1 µM (top of the series)
Method in brief: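 72 h, 37 °C compound treatment of KB-3-1 parental cells; CellTiter-Glo added, 10 min, luminescence read. Data corrected against DMSO-only plates and normalized before curve fitting.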
On the % scale 0 is the no-effect control and ±100 the full control effect; potency means the concentration at half of the fitted maximal effect.

Row | SMILES | activity change, negative = cytotoxic | Potency
1 | CCc1ccc2[nH]c(=O)c(CN(Cc3ccccc3)C(=O)Nc3ccccc3OC)cc2c1 | inactive: -27.6% | –
2 | COC(=O)c1ccc(CN2C(=O)c3ccccc3C2=O)o1 | – | inconclusive: 29.1 µM [rising, single point]
3 | COc1ccc(/C=N/NC(=O)c2cccc(NC(=O)c3ccccc3Cl)c2)cc1 | – | active: 16.4 µM
4 | COC(=O)c1sc(-c2ccc(C(C)(C)C)cc2)cc1NC(=O)/C=C/C(=O)O | – | inconclusive: 25.9 µM [cytotoxic, single point]
5 | COc1cc(C(=O)NNC(=O)c2nn(C)c(=O)c3ccccc23)cc(OC)c1OC | inactive: 0% | –
6 | CC(C)CC1NC(=O)c2cc3ccccc3cc2-n2c1nc1cc(Cl)ccc1c2=O (centres undefined) | – | inconclusive: 20.6 µM [cytotoxic, single point]
7 | COC(=O)C1=C(C)NC2=C(C(=O)CC(c3cccs3)C2)C1c1ccsc1 (centres undefined) | – | inconclusive: 29.1 µM [cytotoxic, single point]
8 | O=C(Nc1nc2c(s1)CCCC2)c1cccc(S(=O)(=O)N2CCCc3ccccc32)c1 | – | inconclusive: 20.6 µM [cytotoxic, single point]
9 | Nc1nnc(SCCCOc2ccc(F)cc2)s1 | – | inconclusive: 0.517 µM [cytotoxic, partial curve, poor fit]
10 | Cc1ccc2c(c1)[C@H]1[C@H](CO2)[C@H](c2ccccc2)[C@]2(C)C(=O)N(Cc3ccccc3)CC(=O)N12 | – | inconclusive: 29.1 µM [cytotoxic, single point]
11 | CCCc1cc(=O)[nH]c(-n2[nH]c3c(c2=O)CCCC3)n1 | – | inconclusive: 32.6 µM [cytotoxic, single point]
12 | COc1ccc(S(=O)(=O)N2CCN(c3nc(-c4cccs4)nc4ccccc34)CC2)cc1OC | – | inconclusive: 29.1 µM [rising, single point]
13 | CCOC(=O)Cc1c(C)nc2c(-c3ccccc3)c[nH]n2c1=O | – | inconclusive: 16.4 µM [cytotoxic, single point]
14 | COc1ccc(C)cc1NC(=O)NC1CCN(Cc2ccccc2)CC1 | inactive: 0.575% | –
15 | CCN(Cc1ccccc1)c1ccc(/C=N/NC(=S)NC(C)C)cc1 | – | inconclusive: 18.4 µM [cytotoxic, single point]
16 | CCCOc1ccc(CSc2nc3ccccc3[nH]2)cc1 | inactive: -3.19% | –
17 | CC(=O)c1cccc(-c2ccnc3c2CC(C(=O)Nc2ccc4c(c2)OCO4)O3)c1 (centres undefined) | – | active: 6.51 µM
18 | Cc1cc(CNC(=O)COc2ccccc2)c2ccccc2n1 | – | inconclusive: 32.6 µM [cytotoxic, single point]
19 | Cc1ccccc1C(=O)O/N=C/c1c(N2CCOCC2)n(C)c2ccccc12 | – | inconclusive: 3.66 µM [cytotoxic, partial curve, poor fit]
20 | CCCC(=O)N1CCN(c2ccc(NC(=O)c3cc4ccccc4o3)cc2Cl)CC1 | – | inconclusive: 3.26 µM [cytotoxic, partial curve, poor fit]
21 | c1ccc2c(c1)CCN(c1nc3cc4c(cc3s1)OCCO4)C2 | – | inconclusive: 18.4 µM [cytotoxic, single point]
22 | CCCCNCCCOc1ccc(C)cc1Br | – | inconclusive: 7.31 µM [cytotoxic, partial curve, poor fit]
23 | COc1cccc(CC(=O)Nc2cccc3ccccc23)c1 | inactive: 3.7% | –

Row | SMILES | activity change, negative = cytotoxic | Potency
24 | CC(C)CC(=O)N1CCN(C(=O)c2ccc(F)cc2)CC1 | – | inconclusive: 25.9 µM [rising, single point]
25 | Clc1ccc(OCCCCCN2CCCC2)c(Br)c1 | inactive: -21.7% | –
26 | C=CCNC(=O)c1ccc(Sc2ccc(C)cc2)c([N+](=O)[O-])c1 | – | inconclusive: 18.4 µM [cytotoxic, single point]
27 | Cc1nc(C)c(-c2csc(Nc3ccccn3)n2)s1 | – | inconclusive: 20.6 µM [cytotoxic, partial curve, poor fit]
28 | COc1ccc(N2CCN(C(=O)c3ccccc3NC(=O)c3ccccc3)CC2)cc1 | – | inconclusive: 20.6 µM [cytotoxic, single point]
29 | O=c1cc(-c2ccc(F)cc2)nc(SCc2nc(-c3ccc(Cl)cc3)no2)[nH]1 | inactive: 18.4% | –
30 | CSc1cccc(NC(=O)C2(S(=O)(=O)c3ccc(C)cc3)CC2)c1 | inactive: 15.5% | –
31 | CCOc1ccc(Br)cc1C(=O)Nc1ccc(C(=O)NCC(C)C)cc1 | – | inconclusive: 29.1 µM [cytotoxic, single point]
32 | CC(=O)c1ccc2c(c1)c(C#N)c1ccccc1[n+]2[O-] | – | inconclusive: 3.26 µM [cytotoxic, partial curve, poor fit]
33 | N#Cc1ccc(-c2nc3ccc(Br)cc3c(=O)n2O)cc1 | – | inconclusive: 29.1 µM [cytotoxic, single point]
34 | CCOC(=O)Nc1nc(-c2ccccc2)c(C(=O)c2ccccc2)s1 | – | active: 0.82 µM
35 | CCCCCCCCCCOC(=O)Cn1c(COc2ccc(OC)cc2)[n+](C)c2ccccc21 | – | active: 20.6 µM and inconclusive: 18.4 µM [cytotoxic, single point]
36 | COc1cccc(N=Nc2ccc(O)c3ncccc23)c1 | – | active: 4.61 µM
37 | C(=C\c1ccco1)/c1nc2ccccc2[nH]1 | – | inconclusive: 20.6 µM [cytotoxic, single point]
38 | Cc1cc(C)c(NC(=O)CNC(=O)c2cc([N+](=O)[O-])ccc2N2CCOCC2)c(C)c1 | inactive: -11.2% | –
39 | CCc1ccc(C2C(C(=O)Nc3ccccc3C)=C(C)Nc3nc(SCc4cccc(OC)c4)nn32)cc1 (centres undefined) | inactive: -0.363% | –
40 | COc1ccc(CCNC(=O)C2CCCN(c3ncccn3)C2)cc1 (centres undefined) | inactive: 5.29% | –
41 | CN(CC(=O)Nc1ccc(Cl)c(C(F)(F)F)c1)C(=O)Cc1n[nH]c(=O)c2ccccc12 | – | inconclusive: 25.9 µM [cytotoxic, single point]
42 | O=C(Nc1ccc(Cl)cn1)c1cccc(S(=O)(=O)N2CCCCCC2)c1 | – | inconclusive: 6.51 µM [cytotoxic, partial curve]
43 | COc1cccc(NC(=O)c2ccc(-n3cccn3)nc2)c1 | – | inconclusive: 8.2 µM [rising, partial curve]
44 | COc1cc2nc(SCc3ccc(Cl)cc3Cl)n(Cc3cccs3)c(=N)c2cc1OC | – | active: 23.1 µM
45 | CCc1ccc(-c2nn(-c3ccccc3)cc2CSC(=N)N)cc1 | – | inconclusive: 16.4 µM [cytotoxic, single point]
46 | NC(=O)C1=CC2C3C=CC2(O)C(=O)OC3O1 (centres undefined) | – | inconclusive: 29.1 µM [cytotoxic, single point]

Row | SMILES | activity change, negative = cytotoxic | Potency
47 | O=C(NCc1ccccc1)C1CCCN1S(=O)(=O)c1cccc2cccnc12 (centres undefined) | – | inconclusive: 16.4 µM [cytotoxic, single point]
48 | COc1ccc2nc(/C(C#N)=C\c3ccc(C(=O)O)cc3)[nH]c2c1 | inactive: 4.08% | –
49 | CC[C@]12c3[nH]c4cc(-c5ccco5)ccc4c3CCN1C(=O)[C@@H](CC(=O)NCCC1=CCCCC1)C[C@@H]2C(=O)N1CCN(C(=O)c2ccco2)CC1 | – | inconclusive: 14.6 µM [cytotoxic, single point]
50 | O=C(CSc1nnc(-c2ccco2)o1)c1ccc[nH]1 | – | inconclusive: 32.6 µM [cytotoxic, single point]
51 | Cc1ccc2c(Cl)c(C(=O)NCCCN3CCOCC3)sc2c1 | – | inconclusive: 16.4 µM [rising, partial curve, poor fit]
52 | Cc1ccc(C(c2nnnn2Cc2ccccc2)N2CCN(Cc3ccccc3)CC2)cc1 (centres undefined) | – | inconclusive: 29.1 µM [cytotoxic, single point]
53 | CCOC(=O)Cn1c(=O)n(C2CCCCC2)c2nc(-c3c(F)cccc3Cl)nc(C(N)=O)c21 | – | inconclusive: 20.6 µM [cytotoxic, single point]
54 | NS(=O)(=O)c1ccc(CCNC(=S)NC(=O)c2ccccc2Br)cc1 | inactive: 5.24% | –
55 | Oc1c(C(c2ccco2)N2CCN(C(c3ccccc3)c3ccccc3)CC2)sc2ncnn12 (centres undefined) | – | inconclusive: 18.4 µM [cytotoxic, single point]
56 | CCc1cc(-c2[nH]ncc2-c2ccc(OC)cc2)c(O)cc1O | – | inconclusive: 16.4 µM [cytotoxic, partial curve, poor fit]
57 | O=C(N/N=C/c1ccc([N+](=O)[O-])cc1)c1ccccc1OCc1ccccc1 | inactive: 0.42% | –
58 | N#CC1=C(N)NC(SCc2ccc(F)cc2)=C(C#N)C12CCCCC2 | – | active: 23.1 µM
59 | C/C(=N/Nc1nc(-c2ccccc2)cc(-c2ccc(F)cc2)n1)c1cccc(N)c1 | – | inconclusive: 29.1 µM [cytotoxic, single point]
60 | COC(=O)c1scc(-c2ccc(C)cc2)c1S(=O)(=O)Nc1cc(C)ccc1OC | – | inconclusive: 29.1 µM [cytotoxic, single point]
61 | COc1cc(/C=C(\NC(C)=O)C(=O)N2CCCCC2)ccc1OC(C)=O | inactive: 5.46% | –
62 | Cc1ccc(CCC(=O)Nc2ncc(Cc3cc(Cl)ccc3Cl)s2)o1 | – | active: 1.16 µM
63 | COc1ccc(Nc2nc(C)nc(N)c2S(=O)(=O)c2ccccc2)cc1 | inactive: 2.38% | –
64 | CC(C)(O)CCC(C)(C)O | inactive: 0% | –
65 | C/C(=N\Nc1cc(N2CCOCC2)nc(C)n1)c1cccc([N+](=O)[O-])c1 | – | inconclusive: 13 µM [cytotoxic, single point]
66 | Cc1ccc2occ(C(c3nnnn3C3CCCC3)N3CCN(C(=O)c4ccco4)CC3)c(=O)c2c1 (centres undefined) | inactive: -12.5% | –
67 | CC(C)CC(NC(=O)c1ccc(C#CC(C)(C)O)s1)C(=O)O (centres undefined) | – | inconclusive: 29.1 µM [rising, single point]
68 | CN(C(=S)NC(=O)/C=C/c1ccc(F)cc1)C1CCCCC1 | inactive: -2.79% | –
69 | CC(C)(C)c1ccc(NC(=O)c2cc(C3CCCN(S(=O)(=O)c4cccc5cccnc45)C3)on2)cc1 (centres undefined) | – | inconclusive: 20.6 µM [cytotoxic, single point]
